Reference: PubChem BioAssay AID1259424 (University of Nebraska Medical Center, 2018)

Aim: 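Seek colon cancer survival genes behaving like KSR1, using a six-gene signature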 (primary screen)
Cell system: human HCT116 colon cancer cells
Reagent: siRNA pool against human genes, 50 nM
Measurement: 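Log2 levels of six mRNAs (branched-DNA multiplex), adjusted by two reference genes and the non-targeting median, then scored against the average KSR1 knockdown pattern as Pearson r and euclidean distance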
Scale: mean correlation with KSR1 profile: higher = expression change more like KSR1 knockdown
Here is an unselected part of about 14,000 reagents. 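Higher correlation or smaller distance means closer resemblance to KSR1 loss; control wells, including KSR1 knockdowns, recur on many plates.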 Not all columns of the deposit are shown. Reagent sequences are not shown. Not stated in the record: the time to read-out.

OR2M4: mean correlation with KSR1 profile = 0.489
OR51E1: mean correlation with KSR1 profile = 0.916
CCN1: mean correlation with KSR1 profile = -0.788
WNT2: mean correlation with KSR1 profile = 0.117
PIWIL1: mean correlation with KSR1 profile = -0.125
IGFBP6: mean correlation with KSR1 profile = 0.515
ZER1: mean correlation with KSR1 profile = -0.537
CNOT6: mean correlation with KSR1 profile = 0.325
ZNF430: mean correlation with KSR1 profile = -0.174

2 entries from above, ordered by “mean correlation with KSR1 profile”, high to low:
WNT2: mean correlation with KSR1 profile = 0.117
PIWIL1: mean correlation with KSR1 profile = -0.125

Additional results follow.
LAMA2: mean correlation with KSR1 profile = 0.171
EMC2: mean correlation with KSR1 profile = 0.414
KLF2: mean correlation with KSR1 profile = 0.189
LCN1: mean correlation with KSR1 profile = -0.0498
ST6GALNAC4: mean correlation with KSR1 profile = 0.298
MAGEA6: mean correlation with KSR1 profile = 0.0184
PPP1R11: mean correlation with KSR1 profile = -0.296
HIPK2: mean correlation with KSR1 profile = 0.409
TSSC4: mean correlation with KSR1 profile = 0.308
TBC1D13: mean correlation with KSR1 profile = -0.108
ESRRA: mean correlation with KSR1 profile = 0.0879
CCDC121: mean correlation with KSR1 profile = 0.225
LEFTY1: mean correlation with KSR1 profile = -0.231
ALKBH5: mean correlation with KSR1 profile = 0.759
CIITA: mean correlation with KSR1 profile = -0.555
TAF6L: mean correlation with KSR1 profile = 0.029
MRPS10: mean correlation with KSR1 profile = -0.269
GPN3: mean correlation with KSR1 profile = -0.0942
CLDN5: mean correlation with KSR1 profile = 0.108
